# Measured values: patent US7169290B1, “Biosensor for metal analysis and speciation” (Battelle Energy Alliance, LLC, priority 2002, dated 2007)
# Some of these results come from one statement about several compounds together. At least one structure is not confirmed: it was looked up by name or label, or the drawing left a doubt.
# Target: T1, purified A. niger NR (E.C. 1.6.6.2) (Aspergillus niger, UniProt P36858)
# T1 construct: purchased Sigma-Aldrich Co. (St. Louis, Mo.)
# T1 sequence (P36858 1-867): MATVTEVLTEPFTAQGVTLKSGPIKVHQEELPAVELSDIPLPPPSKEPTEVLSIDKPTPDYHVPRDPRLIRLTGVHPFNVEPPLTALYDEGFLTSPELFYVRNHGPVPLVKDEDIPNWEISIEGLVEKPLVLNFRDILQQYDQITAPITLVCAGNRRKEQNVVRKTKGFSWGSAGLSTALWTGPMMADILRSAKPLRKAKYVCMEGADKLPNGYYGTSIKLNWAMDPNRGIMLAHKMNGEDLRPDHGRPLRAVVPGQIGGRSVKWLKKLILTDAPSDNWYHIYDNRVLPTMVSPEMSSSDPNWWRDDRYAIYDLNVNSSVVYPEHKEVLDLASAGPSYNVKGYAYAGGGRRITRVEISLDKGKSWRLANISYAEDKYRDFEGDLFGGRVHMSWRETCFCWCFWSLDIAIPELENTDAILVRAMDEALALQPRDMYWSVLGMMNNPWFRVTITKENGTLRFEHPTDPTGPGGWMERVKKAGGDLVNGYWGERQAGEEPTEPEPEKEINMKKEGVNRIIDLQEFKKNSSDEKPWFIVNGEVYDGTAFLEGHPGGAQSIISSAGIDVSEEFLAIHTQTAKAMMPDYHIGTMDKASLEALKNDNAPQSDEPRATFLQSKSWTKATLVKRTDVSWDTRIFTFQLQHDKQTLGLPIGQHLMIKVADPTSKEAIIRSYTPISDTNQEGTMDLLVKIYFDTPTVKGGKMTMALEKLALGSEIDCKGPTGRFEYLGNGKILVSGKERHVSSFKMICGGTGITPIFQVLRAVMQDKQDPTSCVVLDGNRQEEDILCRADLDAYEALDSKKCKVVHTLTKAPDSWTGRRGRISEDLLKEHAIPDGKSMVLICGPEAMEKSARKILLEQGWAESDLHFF
# Assay: Metal inhibition of NR activity, colorimetric nitrite production (Griess reaction), MOPS buffer
# Type: biochemical
# Conditions: 12.5 mM MOPS pH 7.5, no chelating agent
# Experimental: NR activity was measured using the Griess reaction in which nitrite is colorimetrically determined by diazotization and diazomium coupling reactions of nitrite with sulfanilamide and N-(1-naphthyl)ethylenediamine. Measurements were conducted in 96-well microtiter plates, allowing multiple reactions to be quantified simultaneously. The assay followed the method as described in R. Kneer et al., Phytochemistry, 31:2663–2667 (1992), with modifications including the adaptation for use in a 96-well plate format, the reduction of the assay time to 5 minutes, and the substitution of a 12.5 mM MOPS buffer instead of the 33 mM TRIS buffer used.
# This was followed by the addition of 40 μl 0.2% (wt.) N-(1-naphthyl)ethylenediamine. The absorbance of the resulting pink solution read at 540 nm was recorded after ten minutes using a microplate reader (HTS7000 Plus Bioassay Reader, Perkin Elmer, Conn.).
# Negative controls containing all reagents except NR were run and analyzed for nitrite. […]
# NR activity is reported as a percentage of the experimentally measured activity of the positive (metal-free) control or as a ratio of the change in absorbance of a metal-containing sample to the change in absorbance of a positive (metal-free) control. […]
# The sensitivity of NR to Cr(III) was determined at concentrations ranging from 1 to 10 μM. […]
smiles,measurement,value
"[Cu+2] [Cu^2+, copper]",metal concentration at which NR activity was inhibited / adversely affected,below 1 μM
